Test results from patent US20040006094A1, “4-pyrimidinamine derivatives, pharmaceutical compositions and related methods” (priority 2000, published 2004).

Molecular target: differentiated P19 neurons
Experiment: Differentiated P19 excitotoxicity assay: neuroprotection by known kinase inhibitors against glutamate/glycine (Alamar Blue, CFDA)
Format: cell-based, murine
Conditions: 3 mM glutamate, 1 mM glycine; mean of three separate curves
Description: Data points are the average±standard error of three separate experiments.
These cells were used to measure the effects of various known kinase inhibitors (Compound Identification (ID) column in Table I) upon cytotoxicity-induced by NMDA. First, P19 cells were differentiated as described in Example 2. Then cells were exposed to 3 mM of glutamate in the presence of 1 mM glycine.
Cell viability was determined. Compounds that prevented excitotoxicity were determined by measuring the percentage of viable cells compared to differentiated P19 cells that were not presented with a toxic insult (Table I).
Cell viability was measured using two methods. The first method was a confocal, single-cell fluorescence imaging-based method using the live cell dye carboxy-fluorescein diacetate (CFDA). CFDA labels the cell bodies and processes of living cells. […] CFDA fluorescence was measured using a modified Attofluor Imager device (Atto Instruments, Rockville Pike, Md.). […]
The second method for measuring cell viability was a plate reader method. […] Baseline fluorescence counts were read at room temperature in a Wallac plate reader immediately after addition of Alamar blue. Fluorescence counts of cell viability were taken the same way after 1 hour incubation at 37° C. Fluorescence was expressed as a percent of control, untreated cells after subtraction of background fluorescence. […]

C[S+]([O-])c1ccc(-c2nc(-c3ccncc3)c(-c3ccc(F)cc3)[nH]2)cc1 (stereo not shown) [SB203580]
IC50 for Neuroprotection [lower-upper 95% C.I.]: Ineffective
